Measurements from paper PMC12035908.
These are yes or no findings as the source states them, for the method shown. In cells and extracts the contact can be indirect. Some entries that bind do so weakly or less than the wild type.

Molecular target: T1, SNX17 (sorting nexin 17) (human (endogenous in HCC and 293T cells)) (UniProt Q15036)
T1 sequence: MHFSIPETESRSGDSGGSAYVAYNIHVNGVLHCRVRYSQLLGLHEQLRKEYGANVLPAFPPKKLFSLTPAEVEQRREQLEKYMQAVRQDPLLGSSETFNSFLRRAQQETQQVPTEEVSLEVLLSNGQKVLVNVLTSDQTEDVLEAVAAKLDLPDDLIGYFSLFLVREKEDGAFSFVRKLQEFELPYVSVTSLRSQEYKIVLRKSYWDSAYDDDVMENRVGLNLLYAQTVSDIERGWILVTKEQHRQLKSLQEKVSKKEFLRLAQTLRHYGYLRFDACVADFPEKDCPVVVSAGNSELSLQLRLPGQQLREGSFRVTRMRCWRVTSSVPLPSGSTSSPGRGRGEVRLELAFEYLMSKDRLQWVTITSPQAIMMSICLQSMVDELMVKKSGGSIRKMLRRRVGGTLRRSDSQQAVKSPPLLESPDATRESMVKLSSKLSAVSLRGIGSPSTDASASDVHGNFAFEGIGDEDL
Assay: co-IP; RIPA lysates of HCC and 293T cells; anti-SNX17 or anti-STAT3 antibody or control IgG on protein A/G agarose overnight at 4 °C, washed five times, western blot; also in cells with SNX17 knockdown or VPS35 knockdown

binding: binds
Substance: VPS26A (from UniProt O75436 1-327)
